Experimental data taken from article PMC9418256.
Results are given in words; binding and its absence hold for the method and conditions named. Binding seen in cells or lysates may run through a third protein. A result given as binding can be weak or reduced; the word gives no strength. Where a sequence is shown, tags or fusion partners need not be part of it.

Molecular target: KINβ2-YFP (Arabidopsis thaliana)
Assay: co-IP; lysate of 10-day-old Arabidopsis seedlings co-expressing pKIN10::KIN10-Myc and pKINβ2::KINβ2-YFP (control: pKIN10::KIN10-Myc only), treated with or without 2 mM H2O2 for 3 h; GFP-Trap agarose beads, 4 °C, 1 h; immunoblot with anti-GFP and anti-Myc

B1: KIN10-Myc (enzyme, UniProt Q38997 1-512)
chain: MDGSGTGSRSGVESILPNYKLGRTLGIGSFGRVKIAEHALTGHKVAIKILNRRKIKNMEMEEKVRREIKILRLFMHPHIIRLYEVIETPTDIYLVMEYVNSGELFDYIVEKGRLQEDEARNFFQQIISGVEYCHRNMVVHRDLKPENLLLDSKCNVKIADFGLSNIMRDGHFLKTSCGSPNYAAPEVISGKLYAGPEVDVWSCGVILYALLCGTLPFDDENIPNLFKKIKGGIYTLPSHLSPGARDLIPRMLVVDPMKRVTIPEIRQHPWFQAHLPRYLAVPPPDTVQQAKKIDEEILQEVINMGFDRNHLIESLRNRTQNDGTVTYYLILDNRFRASSGYLGAEFQETMEGTPRMHPAESVASPVSHRLPGLMEYQGVGLRSQYPVERKWALGLQSRAHPREIMTEVLKALQDLNVCWKKIGHYNMKCRWVPNSSADGMLSNSMHDNNYFGDESSIIENEAAVKSPNVVKFEIQLYKTRDDKYLLDLQRVQGPQFLFLDLCAAFLAQLRVL
- binding: binds
